Residue numbers refer to the chain shown, from its start. Read-outs that look alike come from different tables or passages of the source. Results are given in words; binding and its absence hold for the method and conditions named. Some entries that bind do so weakly or less than the wild type. Sequences can lack the tags named with a protein.

Protein sequences, listed by entry. Tags and fused reporters are not part of them. Residues count along the entry.
UniProt P29311, residues 5-267: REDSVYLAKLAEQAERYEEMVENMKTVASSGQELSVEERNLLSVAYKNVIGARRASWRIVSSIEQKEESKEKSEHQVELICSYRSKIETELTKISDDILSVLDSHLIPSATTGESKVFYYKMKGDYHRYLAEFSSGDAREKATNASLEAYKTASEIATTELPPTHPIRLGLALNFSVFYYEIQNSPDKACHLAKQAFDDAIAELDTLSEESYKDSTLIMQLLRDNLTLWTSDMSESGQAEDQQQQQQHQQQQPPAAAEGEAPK

The target in assay [1] is T1, Kin2 (full-length, Gal4 DNA-binding domain fusion from pGBDU-KIN2) (S. cerevisiae) (UniProt P13186).
T1 sequence: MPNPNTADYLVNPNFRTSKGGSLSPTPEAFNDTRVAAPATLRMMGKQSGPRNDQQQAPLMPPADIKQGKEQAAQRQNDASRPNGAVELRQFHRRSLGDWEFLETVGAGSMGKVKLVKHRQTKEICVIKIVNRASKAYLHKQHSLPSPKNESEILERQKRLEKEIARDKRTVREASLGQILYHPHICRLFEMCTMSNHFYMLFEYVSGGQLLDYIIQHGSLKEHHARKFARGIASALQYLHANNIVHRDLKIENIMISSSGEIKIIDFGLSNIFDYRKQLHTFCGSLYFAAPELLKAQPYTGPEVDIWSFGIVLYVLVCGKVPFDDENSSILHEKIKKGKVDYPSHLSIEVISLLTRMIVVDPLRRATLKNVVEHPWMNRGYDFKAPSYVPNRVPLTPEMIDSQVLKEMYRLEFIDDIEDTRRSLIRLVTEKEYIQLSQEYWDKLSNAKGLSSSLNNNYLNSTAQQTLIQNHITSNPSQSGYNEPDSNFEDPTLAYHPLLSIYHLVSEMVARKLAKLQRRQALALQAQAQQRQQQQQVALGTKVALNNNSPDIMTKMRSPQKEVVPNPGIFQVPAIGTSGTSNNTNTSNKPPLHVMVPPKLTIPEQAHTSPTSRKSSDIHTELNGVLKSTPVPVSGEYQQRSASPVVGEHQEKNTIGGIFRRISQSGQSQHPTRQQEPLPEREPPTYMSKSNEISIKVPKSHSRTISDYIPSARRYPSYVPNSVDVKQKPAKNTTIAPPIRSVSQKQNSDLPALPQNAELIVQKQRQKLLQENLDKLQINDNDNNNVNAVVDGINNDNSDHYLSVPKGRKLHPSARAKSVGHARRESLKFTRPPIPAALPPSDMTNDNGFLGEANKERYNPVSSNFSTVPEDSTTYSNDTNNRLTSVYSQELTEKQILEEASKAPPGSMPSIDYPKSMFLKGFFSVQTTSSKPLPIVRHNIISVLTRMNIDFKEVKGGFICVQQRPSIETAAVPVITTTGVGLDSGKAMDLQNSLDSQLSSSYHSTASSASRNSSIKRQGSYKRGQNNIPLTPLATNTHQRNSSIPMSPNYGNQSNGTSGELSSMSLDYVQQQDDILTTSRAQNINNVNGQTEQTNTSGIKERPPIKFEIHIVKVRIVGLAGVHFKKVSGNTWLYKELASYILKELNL
Put plainly: two-hybrid; library screens in yeast strain pJ69-4A or pJ69-4α with a pOAD-cDNA prey library; baits in pGBDU (Gal4 DBD); selection on SC-Leu-Ura-His with 3 mM 3-AT at 30°C, then SC-Leu-Ura-Ade; inserts sequenced.

Assay [2] deals with T2, Kin2-NT (a.a. 1–526), Gal4 DNA-binding domain fusion (S. cerevisiae) (UniProt P13186).
T2 sequence: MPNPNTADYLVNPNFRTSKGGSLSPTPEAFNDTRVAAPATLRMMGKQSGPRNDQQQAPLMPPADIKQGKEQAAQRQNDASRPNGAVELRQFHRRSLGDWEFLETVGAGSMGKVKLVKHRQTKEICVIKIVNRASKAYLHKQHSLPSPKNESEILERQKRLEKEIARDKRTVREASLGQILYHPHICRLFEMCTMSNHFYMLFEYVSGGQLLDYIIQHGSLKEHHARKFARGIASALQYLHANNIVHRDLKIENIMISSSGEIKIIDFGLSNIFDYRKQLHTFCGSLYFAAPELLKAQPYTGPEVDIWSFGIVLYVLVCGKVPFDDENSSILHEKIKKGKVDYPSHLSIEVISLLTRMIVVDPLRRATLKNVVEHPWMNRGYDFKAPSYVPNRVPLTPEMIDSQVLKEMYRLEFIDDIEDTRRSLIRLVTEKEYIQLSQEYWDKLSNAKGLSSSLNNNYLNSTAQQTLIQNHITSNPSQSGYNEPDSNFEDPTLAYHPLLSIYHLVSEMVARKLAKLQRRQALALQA
Put plainly: two-hybrid; directed assay: pJ69-4α with pGBDU-C1-based baits mated with pJ69-4A with pOAD- or pGAD-based preys; growth of diploids on SC-Leu-Ura-His (with 3 mM 3-AT for Bmh1) or SC-Leu-Ura-Ade at 30°C for 3 days.

The target in assay [3] is T3, Kin2-NT-KD (kinase-dead Kin2-NT, lysine 128 replaced by methionine), Gal4 DNA-binding domain fusion (S. cerevisiae) (UniProt P13186).
T3 sequence: T2 sequence with K128M
The assay is described as above.

Assay [4] has as its target T1, Kin2 (full-length, Gal4 DNA-binding domain fusion from pGBDU-KIN2) (S. cerevisiae). Put plainly: two-hybrid; library screens in yeast strain pJ69-4A or pJ69-4α with a pOAD-cDNA prey library; baits in pGBDU (Gal4 DBD); selection on SC-Leu-Ura-His with 3 mM 3-AT at 30°C, then SC-Leu-Ura-Ade; inserts sequenced. The source holds these as a separate data set.
Assay [5] deals with T4, Kin2-Δ42 (Gal4 DNA-binding domain fusion from pGBDU-KIN2-Δ42) (S. cerevisiae) (UniProt P13186).
T4 sequence: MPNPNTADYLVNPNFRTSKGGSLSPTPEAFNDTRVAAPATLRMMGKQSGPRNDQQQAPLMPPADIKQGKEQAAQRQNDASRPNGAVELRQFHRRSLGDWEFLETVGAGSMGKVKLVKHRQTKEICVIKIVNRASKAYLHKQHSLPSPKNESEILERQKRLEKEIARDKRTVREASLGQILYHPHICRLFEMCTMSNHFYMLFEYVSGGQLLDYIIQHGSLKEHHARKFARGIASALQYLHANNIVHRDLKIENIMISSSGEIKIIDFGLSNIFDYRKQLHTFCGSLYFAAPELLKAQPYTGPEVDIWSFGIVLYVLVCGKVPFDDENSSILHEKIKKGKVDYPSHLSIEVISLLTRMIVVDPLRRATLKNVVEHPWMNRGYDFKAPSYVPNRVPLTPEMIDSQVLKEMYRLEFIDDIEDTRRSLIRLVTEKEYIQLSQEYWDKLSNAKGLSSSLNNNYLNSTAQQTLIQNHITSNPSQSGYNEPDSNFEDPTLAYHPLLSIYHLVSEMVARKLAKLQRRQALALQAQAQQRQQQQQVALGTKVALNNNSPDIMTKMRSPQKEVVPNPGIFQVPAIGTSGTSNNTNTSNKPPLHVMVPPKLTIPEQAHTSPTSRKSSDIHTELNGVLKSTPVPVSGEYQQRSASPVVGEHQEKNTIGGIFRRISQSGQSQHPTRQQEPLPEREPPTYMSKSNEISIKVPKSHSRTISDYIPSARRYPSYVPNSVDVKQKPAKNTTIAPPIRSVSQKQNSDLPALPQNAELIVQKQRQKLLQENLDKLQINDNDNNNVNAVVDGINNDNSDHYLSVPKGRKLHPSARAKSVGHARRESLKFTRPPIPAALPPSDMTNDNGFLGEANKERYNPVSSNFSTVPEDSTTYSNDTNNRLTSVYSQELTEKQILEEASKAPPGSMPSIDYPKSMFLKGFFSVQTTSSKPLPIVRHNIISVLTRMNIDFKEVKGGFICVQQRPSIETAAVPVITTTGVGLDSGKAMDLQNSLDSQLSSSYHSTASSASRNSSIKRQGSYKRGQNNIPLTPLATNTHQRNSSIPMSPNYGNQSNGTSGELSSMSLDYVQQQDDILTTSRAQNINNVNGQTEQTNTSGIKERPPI
Put plainly: two-hybrid; directed assay: pJ69-4α with pGBDU-C1-based baits mated with pJ69-4A with pOAD- or pGAD-based preys; growth of diploids on SC-Leu-Ura-His (with 3 mM 3-AT for Bmh1) or SC-Leu-Ura-Ade at 30°C for 3 days.

Assay [6] deals with T4, Kin2-Δ42 (Gal4 DNA-binding domain fusion from pGBDU-KIN2-Δ42) (S. cerevisiae). Put plainly: two-hybrid; library screens in yeast strain pJ69-4A or pJ69-4α with a pOAD-cDNA prey library; baits in pGBDU (Gal4 DBD); selection on SC-Leu-Ura-His with 3 mM 3-AT at 30°C, then SC-Leu-Ura-Ade; inserts sequenced.

As to “Bmh1^5-267 (N-terminally truncated Bmh1), Gal4 activation domain fusion from pOAD (from UniProt P29311 5-267) (domain or fragment)”, the binding result in assay [1], in assay [2] and in assay [3] was “binds” throughout.

B1: Irc8 (a.a. 377–822), Gal4 activation domain fusion from pOAD (domain or fragment, UniProt P47046 377-822)
chain: LRVTDKMISPQQSTQNEDSYQATPLIPQVEVDDDFYVGDILMTNELQDIPQVPRISSDIEDDFEQQYTKHVDLPARVTLEMWEKDQEKILQKVTTNRDKSKLLPPFRFTSESDMDPSTSTELEVELHAQNNFSFPFKSAGLQIATSDQFNQQEFKTSDTISELDEYLHDPSIQEEDASQLIESSLNQNNLSSTTIDNGPKDMSRFSTRHSPTKSIISMISGSGSVKHQHSHSTLSNFFTGHSRNNSQINQLLQGSSSNMMSNTSPHSSPTKSLRMRFGKKLSLSNISDTMSPYEGSTTDPINYSFGHGHNKNQSIDFSYVRTLQSSHSPTKSTSGNSRRDSLNNDRTQSTVNERALRTASTLFYLQHNNATCTLNGEEPVLDTPQSIQSSSSGSEQESAGSGSGYPEVVFSEYDREKWNVLRNLKEIAPEKTIESGPVEELVSPSK
Take B1: the binding entry in assay [4] is listed as “binds”.

B2: Pea2 (Gal4 activation domain fusion from pGAD-PEA2) (protein, UniProt P40091 1-420)
chain: MHKFDLELSRRANPLLFSAERYEEYPLKYDELKQYLLSQNPSHPHHNSRPYTSIDYFDYLLYRSKNDESEIDLDKKLVSEFALYYVQKEHLNSDDLNPTLNELLKLQPKSADWYEMMLRILESINTTGIDQLTKENNNSFPNSKRARSSTNMGGTDKFNKGAYHTDKADDDKNEILQELTSFLMSNSIQKGIDIKPIPLDDPVKFLKNGINSILDTCVSLEKNTSSPPISPNAAAIQEEDSSKKLEELETAFSDLQLAHNFLTKQFENDRAEYVQDIEKLTRTNRELQDKLLNNHSNLSKTEKKLHELEQENKELEKANNKLNSSRHNFGMSSPASSPVTWDPSSPSSVGSPTSGSGSRSLSIMTSEFKKVLTSTQRKYEKELSDEREHRFKLERELALLKNAEANTSLALNRDDPPDML
Turning to B2, the binding entry in assay [5] is reported as “binds”.

B3: Tos1 (a.a. 192–455), Gal4 activation domain fusion from pOAD (domain or fragment, UniProt P38288 192-455)
chain: ESQSSISSSKTTSSAAAASSSSSSSSNTNGDWSRGSYFVPGSTSNCTFMNNQGGTAGSGVWSSCFGNSISFAASDGVSGAASAQALGDVTIKSGNEFMIFSGEECSGNNGDCGYYREGIPAYHGFGGADKIFVFEFSMPSDTSGSAYNQDMPAIWLLNAKIPRTLQYGDASCSCWKTGCGEMDLFEILTAGSDKLISHIHDGQDGGTQDYFERPTDGTLKAAVIFNSSDKTIHIIEVDESFDATLSDDVVDQWLSKSGSSAALP
B3: the binding entry in assay [6] is “binds”.

B4: Tos1 (a.a. 201–455), Gal4 activation domain fusion from pOAD (domain or fragment, UniProt P38288 201-455)
chain: KTTSSAAAASSSSSSSSNTNGDWSRGSYFVPGSTSNCTFMNNQGGTAGSGVWSSCFGNSISFAASDGVSGAASAQALGDVTIKSGNEFMIFSGEECSGNNGDCGYYREGIPAYHGFGGADKIFVFEFSMPSDTSGSAYNQDMPAIWLLNAKIPRTLQYGDASCSCWKTGCGEMDLFEILTAGSDKLISHIHDGQDGGTQDYFERPTDGTLKAAVIFNSSDKTIHIIEVDESFDATLSDDVVDQWLSKSGSSAALP
For B4, the binding entry in assay [6] is given as “binds”.

The values are drawn from article PMC4838231.
